Measurements reported in PubChem BioAssay AID1259405 (NCATS, 2018)

- Assay: 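Silenced genes that increase secreted GFP made by CHO cells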 (primary screen)
- System: Chinese hamster CHO-K1 ovary cells with stable secreted eGFP expression
- Reagent: single siRNA against mouse genes, 0.8 pmol siRNA per well (2 µl of 400 nM stock)
- Timing: 3 days
- Measurement: 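Per-well intracellular GFP measured by laser scanning cytometry, plus viability from ATP luminescence, each relative to plate median of non-targeting control wells, in %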
- Reading the numbers: GFP, % of control: higher = more GFP per well, higher productivity; viability (ATP), % of control: higher = more viable cells (more ATP)
- Active means: 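Called active when intracellular GFP, relative to negative control, is at or above 120%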
This is an unselected part of about 50,000 reagents. Of all reagents, about 4,000 (8%) are marked active. 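Mouse siRNA library applied to hamster cells; one well for each siRNA.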 A number with no mark means an inactive call. Reagents against one gene are numbered here.

{"Target gene":"Cox8b (cytochrome c oxidase subunit 8B)","siRNA no.":1,"GFP, % of control":79.2,"viability (ATP), % of control":60.1}
{"Target gene":"Cox8b (cytochrome c oxidase subunit 8B)","siRNA no.":2,"GFP, % of control":88.7,"viability (ATP), % of control":82.5}
{"Target gene":"Cox8b (cytochrome c oxidase subunit 8B)","siRNA no.":3,"GFP, % of control":58.5,"viability (ATP), % of control":70.1}
{"Target gene":"Firrm (FIGNL1 interacting regulator of recombination and mitosis)","siRNA no.":1,"GFP, % of control":82,"viability (ATP), % of control":90.7}
{"Target gene":"Firrm (FIGNL1 interacting regulator of recombination and mitosis)","siRNA no.":2,"GFP, % of control":102,"viability (ATP), % of control":83.7}
{"Target gene":"Firrm (FIGNL1 interacting regulator of recombination and mitosis)","siRNA no.":3,"GFP, % of control":78.6,"viability (ATP), % of control":70.7}
{"Target gene":"Lrrd1 (leucine rich repeats and death domain containing 1)","siRNA no.":1,"GFP, % of control":96.6,"viability (ATP), % of control":60.8}
{"Target gene":"Lrrd1 (leucine rich repeats and death domain containing 1)","siRNA no.":2,"GFP, % of control":54.6,"viability (ATP), % of control":63.7}
{"Target gene":"Lrrd1 (leucine rich repeats and death domain containing 1)","siRNA no.":3,"GFP, % of control":85.6,"viability (ATP), % of control":76.4}
{"Target gene":"Shisa4 (shisa family member 4)","siRNA no.":1,"GFP, % of control":42.2,"viability (ATP), % of control":60.6}
{"Target gene":"Shisa4 (shisa family member 4)","siRNA no.":2,"GFP, % of control":"130 (active)","viability (ATP), % of control":93}
{"Target gene":"Shisa4 (shisa family member 4)","siRNA no.":3,"GFP, % of control":80,"viability (ATP), % of control":110}
{"Target gene":"Relch","siRNA no.":1,"GFP, % of control":30.4,"viability (ATP), % of control":40.4}
{"Target gene":"Relch","siRNA no.":2,"GFP, % of control":70.9,"viability (ATP), % of control":98}
{"Target gene":"Relch","siRNA no.":3,"GFP, % of control":64.3,"viability (ATP), % of control":76.4}
{"Target gene":"Plekhh3 (pleckstrin homology, MyTH4 and FERM domain containing H3)","siRNA no.":1,"GFP, % of control":84.6,"viability (ATP), % of control":82.8}
{"Target gene":"Plekhh3 (pleckstrin homology, MyTH4 and FERM domain containing H3)","siRNA no.":2,"GFP, % of control":85.2,"viability (ATP), % of control":118}
{"Target gene":"Plekhh3 (pleckstrin homology, MyTH4 and FERM domain containing H3)","siRNA no.":3,"GFP, % of control":"139 (active)","viability (ATP), % of control":153}
{"Target gene":"Atrx (ATRX, chromatin remodeler)","siRNA no.":1,"GFP, % of control":104,"viability (ATP), % of control":120}
{"Target gene":"Atrx (ATRX, chromatin remodeler)","siRNA no.":2,"GFP, % of control":78.7,"viability (ATP), % of control":51.8}
{"Target gene":"Atrx (ATRX, chromatin remodeler)","siRNA no.":3,"GFP, % of control":108,"viability (ATP), % of control":87.9}
{"Target gene":"Or6d15 (olfactory receptor family 6 subfamily D member 15)","siRNA no.":1,"GFP, % of control":103,"viability (ATP), % of control":53.9}
{"Target gene":"Or6d15 (olfactory receptor family 6 subfamily D member 15)","siRNA no.":2,"GFP, % of control":102,"viability (ATP), % of control":63.2}
{"Target gene":"Or6d15 (olfactory receptor family 6 subfamily D member 15)","siRNA no.":3,"GFP, % of control":55.6,"viability (ATP), % of control":75.3}
{"Target gene":"Abhd3 (abhydrolase domain containing 3)","siRNA no.":1,"GFP, % of control":66.9,"viability (ATP), % of control":58.4}
{"Target gene":"Abhd3 (abhydrolase domain containing 3)","siRNA no.":2,"GFP, % of control":95.5,"viability (ATP), % of control":76.3}
{"Target gene":"Abhd3 (abhydrolase domain containing 3)","siRNA no.":3,"GFP, % of control":64.2,"viability (ATP), % of control":80.2}

Copied from the listing, 3 entries:
{"Target gene":"Lrrd1 (leucine rich repeats and death domain containing 1)","siRNA no.":1,"GFP, % of control":96.6,"viability (ATP), % of control":60.8}
{"Target gene":"Lrrd1 (leucine rich repeats and death domain containing 1)","siRNA no.":2,"GFP, % of control":54.6,"viability (ATP), % of control":63.7}
{"Target gene":"Lrrd1 (leucine rich repeats and death domain containing 1)","siRNA no.":3,"GFP, % of control":85.6,"viability (ATP), % of control":76.4}
